Results from patent US4737500A, “1-substituted-4-(thiazolyl-2-)-piperazines, -piperidines and -tetrahydropyridines useful as anxiolytic, psychogeriatric, antidepressant and antischizophrenic agents” (priority 1985, dated 1988).

Molecular target: T1, 5HT-1A-binding sites in the pig cortex (Sus scrofa, UniProt A0A4X1UTF5)
T1 construct: from tissue; host or cells: pig cortex
T1 sequence (A0A4X1UTF5 1-422): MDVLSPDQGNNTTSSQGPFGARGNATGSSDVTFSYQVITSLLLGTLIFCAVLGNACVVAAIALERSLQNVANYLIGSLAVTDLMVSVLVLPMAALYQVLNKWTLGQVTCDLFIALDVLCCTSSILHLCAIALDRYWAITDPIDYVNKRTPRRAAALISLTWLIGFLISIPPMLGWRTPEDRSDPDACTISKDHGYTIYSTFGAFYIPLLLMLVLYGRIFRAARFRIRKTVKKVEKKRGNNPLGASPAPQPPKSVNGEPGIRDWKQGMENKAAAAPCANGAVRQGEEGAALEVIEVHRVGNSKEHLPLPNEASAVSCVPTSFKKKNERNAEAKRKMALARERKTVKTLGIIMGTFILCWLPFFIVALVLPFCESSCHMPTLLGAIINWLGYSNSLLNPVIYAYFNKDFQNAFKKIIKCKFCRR
Assay: 5HT-1A-binding affinity test, binding of 3H-8-hydroxy-2-(di-n-propylamino)-tetraline (3H-PAT)

Compound: O=c1n(CCCN2CCN(c3cccc(Cl)c3)CC2)nc2ccccn12 [trazodone]
- IC50: 10 to 400 nM
